Percent effect of library compounds

Chains of the proteins cited; added tags and fusions are not shown. Residues count along the entry.
UniProt P9WNZ1, whole entry: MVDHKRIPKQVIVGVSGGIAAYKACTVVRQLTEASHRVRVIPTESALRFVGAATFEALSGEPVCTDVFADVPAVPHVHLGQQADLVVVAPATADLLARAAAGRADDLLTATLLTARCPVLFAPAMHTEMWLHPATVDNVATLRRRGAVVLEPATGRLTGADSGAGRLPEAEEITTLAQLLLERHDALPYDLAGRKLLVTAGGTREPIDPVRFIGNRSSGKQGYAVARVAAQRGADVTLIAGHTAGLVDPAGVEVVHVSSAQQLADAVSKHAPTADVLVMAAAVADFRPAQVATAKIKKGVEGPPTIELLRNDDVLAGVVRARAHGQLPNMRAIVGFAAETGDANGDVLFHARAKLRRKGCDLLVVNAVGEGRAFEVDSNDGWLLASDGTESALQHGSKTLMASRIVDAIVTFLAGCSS
UniProt Q4DA54, 1-478: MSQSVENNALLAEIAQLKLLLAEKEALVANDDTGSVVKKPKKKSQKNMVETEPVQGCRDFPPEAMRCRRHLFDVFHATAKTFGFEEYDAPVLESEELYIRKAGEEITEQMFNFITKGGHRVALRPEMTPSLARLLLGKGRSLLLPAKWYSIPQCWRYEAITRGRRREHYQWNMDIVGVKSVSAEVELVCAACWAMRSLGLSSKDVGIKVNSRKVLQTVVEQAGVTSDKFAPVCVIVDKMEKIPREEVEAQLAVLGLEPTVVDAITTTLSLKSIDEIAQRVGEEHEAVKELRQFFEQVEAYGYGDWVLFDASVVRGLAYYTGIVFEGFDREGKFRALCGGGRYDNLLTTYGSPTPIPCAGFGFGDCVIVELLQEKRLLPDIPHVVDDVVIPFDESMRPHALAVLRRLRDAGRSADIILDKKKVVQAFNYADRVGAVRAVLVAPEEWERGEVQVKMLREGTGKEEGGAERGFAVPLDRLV

Values are the deposited “Percent Effect”, in %.
How 0% and 100% were set is not recorded. Most values in the screen are low, and negative values occur.
The compounds are a random part of those screened.
Two or more numbers in one place are separate tests of the same structure; such repeats can differ widely.

CoaBC: 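Enzyme assay of CoaBC with a phosphate dye (Biomol Green) read at 650 nm. Target: Coenzyme A biosynthesis protein CoaBC, Mycobacterium tuberculosis (UniProt P9WNZ1). Tested at 30 µM. Direction is inferred from only a few compounds that gave an IC50; most scored high, so higher reads as stronger inhibition. Most strong results did not repeat in a second test. Of about 67,000 compounds tested this way, about 40 (0.06%) reached 50% or more in at least one test.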
TcHisRS: 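Enzyme assay of histidyl-tRNA synthetase; the read-out is not stated. Target: Histidine-tRNA ligase, Trypanosoma cruzi CL Brener (UniProt Q4DA54). Concentration: 30 µM. The record gives no direction; compounds that gave an IC50 in retests scored well above the rest, so higher reads as stronger inhibition. Of about 69,000 compounds tested this way, about 31 (0.045%) reached 50% or more in at least one test.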

SMILES	CoaBC	TcHisRS
CCOCC(O)CN1CCN(C(=O)c2ccc3c(c2)COC3)CC1 (configuration not stated)	1.575	2.286
COc1ccc2cc(C3CN(C(=O)COC(C)C)CCO3)ccc2c1 (configuration not stated)	0.6316	0
CC(C)c1nnc2n1CCN(C(=O)c1cn(-c3ccccc3)nn1)C2	7.916	6.03
O=C(O)[C@@H]1CN(C2CCCCC2)C[C@H]1C1CC1	8.061	1.093
CC(=O)N1CCn2cc(CNC(=O)c3cccn3C)nc2C1	-0.5181	7.104
CCOC(=O)C1CCCN(Cc2c[nH]nc2-c2cc3ccccc3o2)C1 (configuration not stated)	6.138	1.01
O=C(NC1(C(=O)O)CCCCC1)C1Cc2ccccc2O1 (configuration not stated)	-1.739	1.604
COCCOCC(=O)Nc1ccc(Br)cc1F	-2.294	3.261
Cc1ccnc(NCc2ccccc2N2CCOCC2)n1	6.962	-1.22
CCc1ncc(C(=O)NCC2CCN(Cc3ccncc3)CC2)cn1	21.81 and 10.58	-3.061
CC(C)C(=O)N1CCC(c2c(C(N)=O)sc3ccccc23)C1 (configuration not stated)	1.214	3.448
O=C1[C@@H]2CN(c3ncnc4[nH]ccc34)C[C@]2(C(=O)O)CN1CC1CC1	7.143	7.2
COc1ccc(OC)c(C(=O)N(C)Cc2nnc3ccccn23)c1	3.133	1.458
CCC(=O)N1CCC2(CC1)c1nc[nH]c1CCN2S(C)(=O)=O	3.797	1.626
CCN1CC(C(=O)N2CCN(c3cnn(C)c(=O)c3)CC2)CCC1=O (configuration not stated)	3.212	2.273
Cc1nc2ccc(C(=O)N3CC[C@H](O)[C@@H](N4CCOCC4)CC3)cc2[nH]1	4.136	3.731
O=C(Cc1ccc(F)cc1)N1CCCCC1c1ccn2ccnc2n1 (configuration not stated)	-1.944	-1.622
CCN1CC(C(=O)N2CC(Oc3ccccc3Cl)C2)CCC1=O (configuration not stated)	0.8485	10.2
CS(=O)(=O)N1CCC(NC(=O)COc2cccc(Cl)c2)CC1	-9.383	3.704
COc1ccc(SC(C)C(=O)N2CCC(O)CC2)cc1 (configuration not stated)	-0.9677	0.4926
O=C(NC[C@H]1OC[C@@H](NC2CCC(F)(F)CC2)[C@@H]1O)N1CCOCC1	12.58	3.261
CN(c1nc(CSc2nnc(Cn3cncn3)o2)cs1)C1CC1	1.229	6.173
Cc1cccc2c1N(C)C(=O)C21CC(=O)Nc2c1cnn2C(C)(C)C (configuration not stated)	5.443	1.242
CN1C(=O)CC(C(=O)O)C12CCN(Cc1ccc(Cl)cc1F)CC2 (configuration not stated)	-1.339	1.245
Clc1cc(CN2CCCN3CCCC3C2)c2ncccc2c1 (configuration not stated)	-9.719	1.02
Cc1cc(C(=O)NS(C)(=O)=O)ccc1I	11.45	2.041
NC(=O)c1nc2c(s1)CCN(C(=O)Nc1cccc(Cl)c1)CC2	3.415	6.667
c1cnc(N2CCOCC3(CN(Cc4nccs4)CCO3)C2)nc1 (configuration not stated)	1.053	6.452
Cc1nc(CN2CCN(C(C)c3nc(C4CC4)no3)CC2)oc1C (configuration not stated)	3.325	7.059
CCOC(=O)C1CN(S(C)(=O)=O)Cc2ncn(CC)c21 (configuration not stated)	-2.254	6.897
c1ccc(CCN2CCN(c3ccc4nncn4n3)CC2)cc1	5.496	10.86
O=C(c1cnc(C2CC2)s1)N1CCCC(n2cccn2)C1 (configuration not stated)	2.017	2.256
CC(C)(C)CN1CC(O)CN(C(=O)c2cccc(C(F)(F)F)c2)CC1=O (configuration not stated)	1.211	5.618
O=C1OCCC1N1CCN(c2ccccn2)CC1 (configuration not stated)	-1.282	3.941
CN1CCC(N(C)C[C@H]2CC[C@@H](Cc3ccc4occc4c3)O2)CC1	-28.51	1.064
Cc1ccc2c(c1)c(CNC(C)Cn1ccnc1)nn2C (configuration not stated)	4.888	3.704
CN1CCOCC12CCN(c1nncs1)CC2	10.39	2.299
Cc1ccc(CN2Cc3nccn3CC(CN(C)C)C2)s1 (configuration not stated)	-30.63	12.61
COCCCN1CC2(CCC1=O)CCN(Cc1cc(C)no1)CC2	3.257	-5.528
CN1CC[C@]2(CN(Cc3nccs3)C[C@H]2c2ccccc2)C1=O	-6.314	8.046
CC(C)CCNC(=O)c1ccc(Cl)c(NS(C)(=O)=O)c1	-1.716	9.524
COc1cc(C(=O)NS(=O)(=O)c2cncc(Br)c2)ccc1C	3.215	4.103
CC(=O)N1Cc2ccccc2OC2(CCN(C(=O)C3CCOC3)CC2)C1 (configuration not stated)	-4.196	-0.3759
CC(=O)N1CCCC(c2ncncc2-c2ccncc2)C1 (configuration not stated)	1.363	4.494
CS(=O)(=O)N1C[C@H]2CNC[C@@]2(C(=O)NCCOc2ccccc2)C1	9.259	-5.759
CN1CCN(C(=O)[C@@H]2CN(C)C[C@]23COc2ccc(F)cc2C3=O)CC1	-3.946	0.7576
CCC(Cn1ccnc1)n1cnc2scc(C)c2c1=O (configuration not stated)	-3.614	3.96
COc1cc(C)ccc1C(=O)N1CCC2(CCC(=O)N(C(C)C)C2)CC1	-0.4202	1.111
COCCN(C(=O)c1c[nH]c2ncccc12)C1CCCC1	10.07	3.867
CCCN(CCC)c1ncc(S(=O)(=O)c2ccccc2)c(N)n1	9.198	10.31
CN(CC1CCCCO1)c1nncc(-c2cccc(F)c2)n1 (configuration not stated)	4.104	6.122
CCOCC(O)CN1CCN(C(=O)C2CCCCC2)CC1 (configuration not stated)	4.307	-2.616
CCOC(=O)N1CCN(c2nc(NCCCO)c3ccccc3n2)CC1	-3.365	-1.639
Cc1nn(C)c2ncc(CNCCc3ccccn3)cc12	-9.635	1.554
CN(C)[C@@H]1C[C@@H](CO)N(C(=O)Nc2ccc(SC(F)(F)F)cc2)C1	4.426	3.004
CCN1CCN(C(=O)c2cc(-c3ccc(C)o3)n[nH]2)[C@H]2CS(=O)(=O)C[C@H]21	-3.418	-1.22
CCn1cc(CN2CCCN(C(=O)c3ccoc3)CC2)cn1	-0.5222	2.041
O[C@H]1CN(c2nc(-c3ccccc3)no2)C[C@@H]1N1CCOCC1	0.216	-22.45
CN1CC(c2ccccc2)CC12CCN(C(=O)c1ccncc1)CC2 (configuration not stated)	-2.778	3.061
Cc1nn(C)c(N2CCOCC2)c1CNC1CCc2cc(F)ccc21 (configuration not stated)	-4.216	0.3802
Cc1cc(NC(=O)N2CCCC(O)C2)nn1-c1ccccc1Cl (configuration not stated)	-1.34	2.976
CC(C)c1nccc(CN2CCCC(O)(CN3CCCC3)C2)n1 (configuration not stated)	-7.576	2.4
CC(=O)c1c(O)n(C)c2ccc(C)cc12	-3.132	6.186
Cc1cc(C)cc(CCC(=O)N2CCN(c3cc(C)nc(N)n3)CC2)c1	4.268	7.831
COCC1Cn2nnc(-c3cnn(C)c3)c2CN1Cc1ccoc1 (configuration not stated)	9.647	3.365
COCc1cnc2n1CCN(C(=O)c1ccc3ccccc3n1)C2C (configuration not stated)	2.463	6.186
CCN1C(=O)CCC12CCCN(Cc1ccc(F)cc1)CC2 (configuration not stated)	-5.176	3.365
Cc1nn(C)c(N2CCOCC2)c1CN[C@@H]1c2ccccc2C[C@@H]1O	1.575	6.857

The first 8 entries again:

| SMILES | CoaBC | TcHisRS |
|---|---|---|
| `CCOCC(O)CN1CCN(C(=O)c2ccc3c(c2)COC3)CC1` (configuration not stated) | 1.575 | 2.286 |
| `COc1ccc2cc(C3CN(C(=O)COC(C)C)CCO3)ccc2c1` (configuration not stated) | 0.6316 | 0 |
| `CC(C)c1nnc2n1CCN(C(=O)c1cn(-c3ccccc3)nn1)C2` | 7.916 | 6.03 |
| `O=C(O)[C@@H]1CN(C2CCCCC2)C[C@H]1C1CC1` | 8.061 | 1.093 |
| `CC(=O)N1CCn2cc(CNC(=O)c3cccn3C)nc2C1` | -0.5181 | 7.104 |
| `CCOC(=O)C1CCCN(Cc2c[nH]nc2-c2cc3ccccc3o2)C1` (configuration not stated) | 6.138 | 1.01 |
| `O=C(NC1(C(=O)O)CCCCC1)C1Cc2ccccc2O1` (configuration not stated) | -1.739 | 1.604 |
| `COCCOCC(=O)Nc1ccc(Br)cc1F` | -2.294 | 3.261 |

Data taken from ChEMBL document CHEMBL3988442, “University of Dundee, Small-Polar-MMV Screening Library” (2021).